Laboratory results as given in publication PMC6393240, “DNA replication initiation in Bacillus subtilis: structural and functional characterization of the essential DnaA–DnaD interaction” (Nucleic Acids Research, 2018).
The exact form of at least one protein or probe is not confirmed. At least one verdict rests on a figure or table, not on a statement of the authors.

Test system: DnaD DDBH2 + DnaA domain I
Experiment: NMR
Conditions: 15N HSQC CSP titrations up to 8:1 with ssDNA 800 uM, ternary complex; NMR: 100 uM 15N protein, up to 8:1 partner, 800 uM ssDNA; recombinant protein; single-stranded DNA

Question: Does GTTATTGCTC [10-mer ssDNA] bind?
Answer: binds
